Several values for one entry are separate records, joined by “and”; a condition that tells them apart may be missing. Equal values may be shown once. For part of these data: At least one peptide structure holds a part that was inferred or is arguable (an end, a ring closure or a residue). Some compounds share one wording; it may come from a single statement. For part of these data: At least one structure is not confirmed: it was looked up by name or label, or the drawing left a doubt. Square brackets hold non-standard residues; d marks the D form. Ends that are not written are not given here. Peptide text beside a SMILES is read from it.
Experiments:
CRAB 12006 = assay: Crystal violet biofilm inhibition; format: cell-based, A. baumannii; conditions: 0-32 μM, 16 h
Description: A crystal-violet-based assay was used to investigate the biofilm inhibition ability of R-Pro9-3D against A. baumannii standard bacteria and a CRAB 12006 line. […] Thereafter, bacterial cells were fixed with methanol (100%, 15 minutes) and then stained with crystal violet (0.1% (w/v) in 0.25% (v/v) acetic acid for 1 hour). The plate was washed with distilled H2O, dried and dissolved in ethanol (100% v/v). Color development, which indicates the extent of biofilm, was measured at 595 nm and expressed as biofilm formation percentage.

[1] = tested on: all bacterial strains (standard and carbapenem-resistant Gram-negative bacteria); assay: Mean MIC (GM) for all bacterial strains; format: cell-based; conditions: all nine strains of Table 2
[2] = tested on: IL-6 production in RAW264.7 cells stimulated with LPS; assay: IL-6 ELISA, LPS-stimulated cells; format: cell-based, mouse; conditions: 25 μM, LPS 20 ng/mL, 16 hours
intact CRAB bacteria = assay: diSC3-5 membrane depolarization; format: cell-based, A. baumannii; conditions: 4 μM
Description: Depolarization ability by peptides was measured using a membrane potential-sensitive dye 3,3′-dipropylthiadicarbocyanine iodide (diSC3-5) using intact CRAB bacteria. CRAB cells were washed using a wash buffer (5 mM HEPES, 20 mM glucose, pH 7.4). The cells were resuspended in a dilution buffer (5 mM HEPES, 20 mM glucose, 0.1 M KCl, pH 7.4) and then cultured with a diSC3-5 dye (1 hour). Finally, the fluorescence changes of cells treated with various concentrations of peptides, a negative control (cells with dye) and a positive control (1% Triton X-100) were recorded using a fluorescence spectrophotometer, and the results are expressed as percent depolarization.

[3] = tested on: TNF-α production in RAW264.7 cells stimulated with LPS; assay: TNF-α ELISA, LPS-stimulated cells; format: cell-based, mouse; conditions: 25 μM, LPS 20 ng/mL, 16 hours

Molecule | Biofilm formation inhibition, CRAB 12006 (CRAB 12006) | GM (geometric mean of MIC values for all bacterial strains) [1] | Suppression of IL-6 [2] | Depolarization (intact CRAB bacteria) | Suppression of TNF-α [3]
C[C@@H](O)[C@H]1C(=O)N2C(C(=O)O)=C(SCCN=CN)C[C@H]12 [Imipenem] | remarkably lower |  |  |  | 
CC[C@@H](C)[C@@H](NC(=O)[C@@H](C)NC(=O)[C@@H](CC(C)C)NC(=O)[C@@H](Cc1c[nH]c2ccccc12)NC(=O)[C@@H](CC(C)C)NC(=O)[C@H](N)CCCNC(=N)N)C(=O)N[C@H](Cc1c[nH]c2ccccc12)C(=O)N[C@H](CCCNC(=N)N)C(=O)N[C@H](CCCNC(=N)N)C(N)=O [Pro9-3D, rlwlaiwrr-NH2] (H-[dR][dL][dW][dL][dA][dI][dW][dR][dR]-NH2) |  | 7.6 µM | relatively lesser extent | 68.4% | relatively lesser extent
RLWLAIWRR-NH2 [Pro9-3] |  | 32.0 µM and 32 µM | relatively lesser extent | 66.3% | relatively lesser extent
